{
  "source": "PubChem BioAssay AID504834",
  "about": "(National Center for Advancing Translational Sciences (NCATS), 2011)",
  "note": "Among all 320,000 compounds or so, about 22,000 (6.9%) were called active. Inconclusive means that the source gave no clear call. Such entries were picked first, then a sample of the others. Calls follow the shape of the dose curve; as a rule, active = well fitted inhibition curve with a large enough effect; inconclusive = small, poorly fitted or top-dose-only effect, or another doubt; inactive = no such curve, though single readings can be large or run the other way. A potency beside an inconclusive call is a rough fit, not a confirmed value. Potency is read from the fitted curve at half-maximal effect.",
  "data": [
    {"assay": "Primary qHTS for delayed death inhibitors of the malarial parasite plastid, 96 hour incubation", "settings": "P. falciparum luciferase reporter growth; series mostly up to 28.7 µM", "summary_of_the_method": "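Infected RBCs, 2% Hct / 0.05% parasitemia final; luciferase-reporter P. falciparum; cpd 96 h, 37 C, 5% CO2; luciferase detection reagent; luminescence.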", "values": [
      {"smiles": "CCCSc1ccc([C@@H]2[C@H]3C(=O)N(CC)C(=O)[C@H]3[C@]3(C(=O)OC)CCCN23)cc1OC", "Potency": "inconclusive: 11.7 µM [inhibitor, single point]"},
      {"smiles": "COc1ccc(NC(=O)C(Cl)=C(Cl)Cl)cn1", "Potency": "inconclusive: 18.5 µM [inhibitor, single point]"},
      {"smiles": "CNC(=O)c1c(NC(=O)c2ccc(S(=O)(=O)N3CCCc4ccccc43)cc2)sc2c1CCN(C)C2", "Potency": "inconclusive: 5.86 µM [inhibitor, partial curve]"},
      {"smiles": "N#CCOc1nc(N2CCCC2)nc(N2CCCC2)n1", "Potency": "inactive"},
      {"smiles": "CCOC(=O)Cc1csc(NC(=O)Nc2cccs2)n1", "Potency": "inactive"},
      {"smiles": "COCCNC(=O)C(c1ccc(C)o1)N(C(=O)c1snc(C(N)=O)c1N)c1ccc(C)c(C)c1", "note": "(stereo unspecified)", "Potency": "inactive"},
      {"smiles": "Cc1ccnc(N2C(=O)c3ccccc3C2Nc2ccc3c(c2)OCCO3)c1", "note": "(stereo unspecified)", "Potency": "inconclusive: 9.28 µM [inhibitor, partial curve]"},
      {"smiles": "COCCn1nnnc1C(c1ccccc1)N1CCN(c2ccccc2)CC1", "note": "(stereo unspecified)", "Potency": "inconclusive: 13.1 µM [inhibitor, partial curve, poor fit]"},
      {"smiles": "COC(=O)N1C/C=C\\C(c2ccc(OC)cc2)N(Cc2ccc(F)cc2)C(=O)C1", "note": "(stereo unspecified)", "Potency": "inconclusive: 18.5 µM [inhibitor, partial curve, poor fit]"},
      {"smiles": "COc1cc(NC(=S)Nc2cccnc2)cc(OC)c1", "Potency": "inactive"},
      {"smiles": "Cc1ccc(CN2CCN(Cc3ccco3)CC2)cc1", "Potency": "inconclusive: 3.7 µM [inhibitor, single point]"},
      {"smiles": "COc1ccc(NC(=O)CN(C)C(=O)Cc2ccc(-c3ccccc3)cc2)cc1", "Potency": "inconclusive: 1.85 µM [inhibitor, full curve, poor fit]"},
      {"smiles": "Cc1nn(C)c(C)c1/C=C(/C(=O)C(C)C)n1cncn1", "Potency": "inconclusive: 1.85 µM [inhibitor, partial curve, poor fit]"},
      {"smiles": "CCOC(=O)c1c(NC(=O)C2COc3ccccc3O2)sc2c1CCN(Cc1ccccc1)C2", "note": "(stereo unspecified)", "Potency": "active: 2.33 µM"},
      {"smiles": "CCOc1ccc(NC(=O)C2CCCN(S(=O)(=O)c3ccc4[nH]c(=O)ccc4c3)C2)cc1", "note": "(stereo unspecified)", "Potency": "inconclusive: 18.5 µM [inhibitor, single point]"},
      {"smiles": "O=C(Cc1ccccc1)Nc1ccc(S(=O)(=O)N2CCCC2)cc1", "Potency": "inconclusive: 16.5 µM [inhibitor, partial curve, poor fit]"},
      {"smiles": "O=c1[nH]snc1N1CCOCC1", "Potency": "inconclusive: 18.5 µM [inhibitor, single point]"},
      {"smiles": "O=C(NCC1CC1)c1onc(CSc2nc3ccccc3[nH]2)c1C(=O)NCC1CC1", "Potency": "active: 10.4 µM"},
      {"smiles": "Cc1ccc(C2(c3noc(CN(C)CC4CCCCO4)n3)CCCC2)cc1", "note": "(stereo unspecified)", "Potency": "inconclusive: 1.31 µM [inhibitor, full curve, poor fit]"},
      {"smiles": "N#CC1=C(N)C(C#N)(C#N)[C@H](c2cccnc2)[C@H]2CN(C(=O)OCc3ccccc3)CC=C12", "Potency": "active: 13.1 µM"},
      {"smiles": "O=c1oc2ccccc2c(O)c1/C=C1\\C=Nc2ccccc21", "Potency": "inactive"},
      {"smiles": "COc1ccc(-c2nc(NC(=O)c3ccccc3)sc2-c2ccc([N+](=O)[O-])cc2)cc1", "Potency": "inconclusive: 0.329 µM [inhibitor, full curve, poor fit]"},
      {"smiles": "Cc1cc(C)cc(-n2ncc3c2CCCC3NC(=O)c2csnn2)c1", "note": "(stereo unspecified)", "Potency": "inconclusive: 13.1 µM [inhibitor, partial curve, poor fit]"},
      {"smiles": "COc1ccccc1N1CCN(C2CCCN(C(=O)c3snnc3C)C2)CC1", "note": "(stereo unspecified)", "Potency": "active: 13.1 µM"},
      {"smiles": "COc1ccc(CCn2c(=N)c(S(=O)(=O)c3ccccc3)cc3c(=O)n4ccccc4nc32)cc1", "Potency": "inconclusive: 7.38 µM [inhibitor, partial curve]"},
      {"smiles": "COc1ccccc1N1CCN(C(=O)c2cc(-c3ccc(F)cc3)on2)CC1", "Potency": "inactive"},
      {"smiles": "Cc1ccccc1CSc1nc2c(c(=O)[nH]1)CCCC2", "Potency": "inconclusive: 18.5 µM [inhibitor, partial curve, poor fit]"},
      {"smiles": "CCOc1ccc2nc(C)cc(Nc3ccc(N4CCOCC4)cc3)c2c1", "Potency": "active: 2.62 µM"},
      {"smiles": "Cc1cc(Br)ccc1NC(=O)CN(C)C(=O)Cn1c(=O)cnc2ccccc21", "Potency": "inactive"},
      {"smiles": "COC(=O)COc1ccc(S(=O)(=O)Nc2cc(OC)ccc2OC)cc1", "Potency": "inconclusive: 20.8 µM [inhibitor, partial curve, poor fit]"},
      {"smiles": "CC(C)(C)NC(=O)Cn1nnc(-c2ccc(S(C)(=O)=O)cc2)n1", "Potency": "inconclusive: 16.5 µM [inhibitor, single point]"},
      {"smiles": "N#C/C(=C\\c1c(F)cccc1Cl)S(=O)(=O)c1ccccn1", "Potency": "inactive"},
      {"smiles": "COc1ccc(NC(=O)c2ccc(S(=O)(=O)N(C)C)cc2)cc1OC", "Potency": "inconclusive: 18.5 µM [inhibitor, single point]"},
      {"smiles": "COc1ccccc1/C=C/C=N/NC(=O)c1ccncc1", "Potency": "inactive"},
      {"smiles": "O=C(O)CCCCCCCCc1cn(CN2C(=O)c3ccccc3C2=O)nn1", "Potency": "inactive"},
      {"smiles": "CCCCc1cc(=O)oc2cc(OCC(=O)N3CCC(C(N)=O)CC3)ccc12", "Potency": "inconclusive: 11.7 µM [inhibitor, single point]"},
      {"smiles": "CCCNC(=O)CSc1nc2[nH]ncc2c(=O)[nH]1", "Potency": "inconclusive: 18.5 µM [inhibitor, single point]"},
      {"smiles": "COc1ccc(NC(=O)CCC(=O)OCc2ccc(Br)cc2)cc1", "Potency": "inconclusive: 18.5 µM [inhibitor, single point]"},
      {"smiles": "CS/C(N)=N/N=C/c1cc(Br)cc(Br)c1O", "Potency": "inconclusive: 1.65 µM [inhibitor, full curve]"},
      {"smiles": "COc1cc(-c2noc(CCC(N)=O)n2)cc(OC)c1OC", "Potency": "active: 9.28 µM"},
      {"smiles": "CCc1cc2c(=O)n(-c3ccccc3)c(SCC(N)=O)nc2s1", "Potency": "inactive"},
      {"smiles": "CCN(CC)C(=O)c1c(-c2ccccc2)oc2ccc(O)cc12", "Potency": "inactive"},
      {"smiles": "CCCn1c(=NC(=O)CS(=O)(=O)c2ccccc2)sc2cc(S(C)(=O)=O)ccc21", "Potency": "inconclusive: 2.08 µM [inhibitor, full curve]"},
      {"smiles": "CC(=O)NNC(=O)c1[nH]c2ccc(Br)cc2c1-c1ccccc1", "Potency": "inactive"},
      {"smiles": "CCOC(=O)c1ccc(NC(=O)CSc2nc(=O)n3cccc(C)c3n2)cc1", "Potency": "inconclusive: 18.5 µM [inhibitor, single point]"},
      {"smiles": "CCn1cc(C(=O)O)c(=O)c2cnc(N3CCN(C(=S)NC(=O)c4ccc(Br)cc4)CC3)nc21", "Potency": "inconclusive: 3.7 µM [inhibitor, partial curve, poor fit]"},
      {"smiles": "COc1ccc2cc(CN(CC3CCCO3)C(=S)Nc3ccccc3)c(=O)[nH]c2c1", "note": "(stereo unspecified)", "Potency": "inconclusive: 18.5 µM [inhibitor, single point]"},
      {"smiles": "COc1ccc(/C=C/C(=O)Nc2ccccc2)cc1S(=O)(=O)N1CCOCC1", "Potency": "inconclusive: 13.1 µM [inhibitor, partial curve, poor fit]"},
      {"smiles": "CN(C)S(=O)(=O)c1cccc(NC(=O)c2cc(-c3cccs3)nn2-c2ccccc2)c1", "Potency": "active: 14.7 µM"},
      {"smiles": "COc1ccc(-c2ccc(CCC(=O)O)n2CC(=O)Nc2ccccc2C)cc1", "Potency": "inconclusive: 9.28 µM [inhibitor, partial curve]"},
      {"smiles": "CCC(C)C(NC(=O)OCc1ccccc1)C(=O)NCC(c1ccccc1)N(C)C", "note": "(stereo unspecified)", "Potency": "inconclusive: 18.5 µM [inhibitor, single point]"},
      {"smiles": "CCCCCOc1ccccc1C(=O)NCCC(=O)O", "Potency": "inactive"},
      {"smiles": "Cc1ccc(/C=N/Nc2ccc(C(=O)O)cc2)s1", "Potency": "inactive"},
      {"smiles": "Cc1ccccc1NC(=O)CN1C(=O)S/C(=C\\c2ccc(-c3cc(C(=O)O)ccc3C)o2)C1=O", "Potency": "inactive"},
      {"smiles": "CCOC(=O)Nc1ccccc1N1C(=O)c2ccccc2C1=O", "Potency": "inconclusive: 16.5 µM [inhibitor, single point]"},
      {"smiles": "CCCCc1cc(=O)oc2c(C)c(OCC(=O)N3C[C@H]4C[C@@H](C3)c3cccc(=O)n3C4)ccc12", "Potency": "inconclusive: 16.5 µM [inhibitor, single point]"},
      {"smiles": "CCN1CC2(COC(=O)c3ccccc3N)CCC(OC)C34C5CC6C(OC)CC(O)(C5C6OC)C(O)(C(OC)C23)C14", "note": "(stereo unspecified)", "Potency": "inconclusive: 18.5 µM [inhibitor, single point]"},
      {"smiles": "CC1(C)Cc2c(c(-c3ccco3)[nH]c(=O)c2C#N)CS1", "Potency": "inactive"},
      {"smiles": "COc1ccccc1N(CC(=O)N/N=C(\\C)c1ccccc1O)S(=O)(=O)c1ccc(C)cc1", "Potency": "inconclusive: 11.7 µM [inhibitor, single point]"},
      {"smiles": "Cc1ccc(C(=O)n2cnc3ccccc32)cc1C", "Potency": "inactive"},
      {"smiles": "Cc1ccc(CCNC(=O)CCS(=O)(=O)c2cc3c(cc2C)NC(=O)CO3)cc1", "Potency": "inconclusive: 13.1 µM [inhibitor, single point]"},
      {"smiles": "COCCCNC(=O)/C=C/c1ccc(Cl)cc1", "Potency": "inactive"},
      {"smiles": "COc1ccc(N/C=C/c2nc(SC)nnc2C)cc1", "Potency": "inconclusive: 0.0083 µM [inhibitor, full curve, poor fit]"},
      {"smiles": "CN(CCOc1ccc(Cl)cc1)CC(=O)Nc1ccc(OC(F)(F)F)cc1", "Potency": "inactive"},
      {"smiles": "O=C(NC(=S)Nc1ccc(CN2CCOCC2)cc1)c1ccc(-c2cccc(Cl)c2)o1", "Potency": "inactive"},
      {"smiles": "COc1ccc(-c2sc3ccccc3c2C#CCCO)cc1", "Potency": "inconclusive: 13.1 µM [inhibitor, single point]"},
      {"smiles": "Nc1nc(CSC(=S)N2CCOCC2)nc(Nc2ccc(F)cc2)n1", "Potency": "inactive"},
      {"smiles": "CC(Sc1n[nH]c(N)n1)C(=O)NC1CCCCC1C", "note": "(stereo unspecified)", "Potency": "inactive"},
      {"smiles": "COc1ccccc1CNC(=O)C(C)NS(=O)(=O)c1ccc(Br)cc1", "note": "(stereo unspecified)", "Potency": "inconclusive: 18.5 µM [inhibitor, single point]"},
      {"smiles": "CCSc1nnc(NC(=O)NC(CC)(C(F)(F)F)C(F)(F)F)s1", "Potency": "inconclusive: 14.7 µM [inhibitor, partial curve, poor fit]"},
      {"smiles": "Cc1onc(-c2ccccc2Cl)c1C(=O)N1CCCCCC1", "Potency": "inconclusive: 0.465 µM [inhibitor, full curve]"}
    ]}
  ]
}
